We go through one substance from PMC3217009.

Protein sequences, listed by entry. Tags and fused reporters are not part of them.
UniProt O35718: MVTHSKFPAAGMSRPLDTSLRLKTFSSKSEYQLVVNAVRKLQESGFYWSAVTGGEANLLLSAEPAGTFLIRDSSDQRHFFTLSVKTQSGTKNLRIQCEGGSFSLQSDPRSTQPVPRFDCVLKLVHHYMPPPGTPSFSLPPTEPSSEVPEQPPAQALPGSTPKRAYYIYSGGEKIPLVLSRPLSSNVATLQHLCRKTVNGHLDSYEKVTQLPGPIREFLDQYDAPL
UniProt Q04207: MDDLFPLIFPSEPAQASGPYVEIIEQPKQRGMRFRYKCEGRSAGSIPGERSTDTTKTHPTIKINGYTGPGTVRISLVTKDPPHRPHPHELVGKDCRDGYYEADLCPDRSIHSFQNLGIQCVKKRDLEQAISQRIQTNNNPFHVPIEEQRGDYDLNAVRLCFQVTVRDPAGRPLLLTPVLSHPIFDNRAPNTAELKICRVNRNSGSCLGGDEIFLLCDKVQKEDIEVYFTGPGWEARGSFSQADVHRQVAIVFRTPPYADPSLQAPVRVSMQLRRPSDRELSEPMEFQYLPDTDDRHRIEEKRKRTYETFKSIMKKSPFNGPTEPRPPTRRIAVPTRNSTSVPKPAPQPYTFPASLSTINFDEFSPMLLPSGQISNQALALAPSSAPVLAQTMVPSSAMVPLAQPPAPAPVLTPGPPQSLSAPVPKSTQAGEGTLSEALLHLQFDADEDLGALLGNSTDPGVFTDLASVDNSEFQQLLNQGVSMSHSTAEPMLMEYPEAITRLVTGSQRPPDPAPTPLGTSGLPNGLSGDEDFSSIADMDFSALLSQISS

For the assay, the target named is SOCS3 (mouse (endogenous in RAW264.7)) (UniProt O35718). The assay is described as follows: co-IP; lysate of RAW264.7 cells treated with rmMFG-E8 (500 ng/mL) for 2 h or untreated; lysis in 150 mM NaCl, 1% Nonidet P-40, 50 mM Tris HCl pH 8.0, 1 mM PMSF; pre-cleared extract (80-100 µg protein) immunoprecipitated overnight at 4°C with anti-mouse SOCS3 Ab, protein G beads; Western blot with anti-p65 Ab.

These are yes or no findings as the source states them, for the method shown. Binding seen in cells or lysates may run through a third protein. Some binding calls cover weakened binding; strength is not graded here.

Take NF-κB p65 (from UniProt Q04207 1-549): the binding result is reported as “binds”.
